Assay results from article PMC5461414.
Construct, isoform or probe ends are uncertain for at least one entry. Protein sequences can lack the tags named with them.

Molecular target: T1, MdHY5-GST (Malus x domestica) (UniProt L0MZN5)
T1 sequence (looked up, limits assumed): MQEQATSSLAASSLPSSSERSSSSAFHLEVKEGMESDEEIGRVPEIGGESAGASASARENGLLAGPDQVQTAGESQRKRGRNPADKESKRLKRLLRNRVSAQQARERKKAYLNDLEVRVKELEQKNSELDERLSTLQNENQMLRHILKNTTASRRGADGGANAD
Experiment: EMSA
Details: 1x binding buffer with 2.5% glycerol, 10 mM EDTA, 5 mM MgCl2, 50 mM KCl; 24 °C, 25 min; pH not stated (LightShift Chemiluminescent EMSA kit); recombinant protein; protein details: GST (pGEX-4T-1); label: biotin

Row | Sequence | binding result
1 | GTCGACACCACGTGGAGTTAAATT (double strand) [MdMYB10 promoter G-box-2 probe] | binds
2 | GTCGACGAGCCAATTGCGTCGACAG (double strand) [MdHY5 promoter E-box probe] | binds
